{"source": "patent US11846640B2", "about": "“Identification of anticoagulants in a sample” (DSM IP Assets B.V., priority 2013, dated 2023)", "system": "normal plasma pool (NPP)", "assay": "PiCT Method 4 (inverted PiCT) clotting time on ACL TOP 500", "assay_type": "biochemical, human", "procedure": "The present invention is in one aspect directed to the use of a clotting assay, in particular the PiCT® testing method on a detection system such as e.g. the ACL TOP® 500 analyzer and to a method to quantitatively and qualitatively detect anticoagulants in a sample, e.g. blood or plasma. […] PiCT® Method 4 or PiCT® inverted includes that first the start reagent is added to the sample, the mixture allowed to proceed according to the manufacturer's instructions followed by addition of the activator, i.e. a reversed order compared to standard PiCT® (see above). PiCT® Method 1 to 4 is described in more detail in the Examples.\nThe 4 methods (see above) are in more detail described in the Examples. […] With regards to the ACL TOP® 500 analyzer, PiCT® Method 1 to 4 has been established as follows: • PiCT® Method 1: 50 μl of plasma is incubated for 180 sec with 50 μl of reagent 1 and afterwards 50 μl of reagent 2 is added and the time to clot is recorded on the ACL TOP® 500 (i.e. pipetting scheme: P-50/A-50/I-180/50-S).\nAfter calculation of the RR for the different kind of anticoagulants (see Example 1) samples of NPP spiked with incremental amounts of anticoagulants were used in the ACL TOP® 500, wherein 45 μl start reagent was incubated with 140 μl plasma for 60 sec. The time to clot was recorded after addition of 40 μl of activator (i.e. so-called inverted PiCT®).", "data": [{"substance": "lepirudin [hirudin]", "values": [{"measurement": "AC present yes/no", "setting": "Table 4, PiCT Method 4, clotting time out of RR at the low concentrations of Table 4", "result": "yes"}, {"measurement": "Detection of low amounts with PiCT Method 4", "setting": "low amounts as shown in Table 4", "result": "could be detected"}]}]}
